{"source": "the supplement of paper PMC4683952", "note": "Counter-ions that a name gives are not always drawn. About 50 (4%) of roughly 1,200 compounds showed activity. Rule as the data show it: all actives reach 1.3 or more but so do some inactives. The list shows a part of the results.", "data": [{"system": "Lgr5 (MarsCy1-Lgr5-EGFP, U2OS)", "assay": "cell-surface Lgr5 expression (SCi1 fluorescence, background-subtracted) relative to WT DMSO (fold of DMSO control); higher = more Lgr5 at the plasma membrane, active = hit call of the paper", "conditions": "U2OS MarsCy1-Lgr5-EGFP stable; treatment time: overnight; 16 µM; library: Johns Hopkins Clinical Compound Library", "values": [{"smiles": "OB1OO1", "note": "[Sodium perborate tetrahydrate]", "cell-surface Lgr5 expression": "inactive: 0.895"}, {"smiles": "COc1cc2c(c(OC)c1OC)-c1ccc(OC)c(=O)cc1[C@@H](NC(C)=O)CC2", "note": "[Colchicine]", "cell-surface Lgr5 expression": "inactive: 1.37"}, {"smiles": "CCN(CC)C(=O)N[C@H]1C[C@@H]2c3cccc4[nH]cc(c34)C[C@H]2N(C)C1", "note": "[S(+)-Terguride]", "cell-surface Lgr5 expression": "inactive: 1.14"}, {"smiles": "CC1C=CC=CCCC=CC=CC=CC=CC(OC2OC(C)C(O)C(N)C2O)CC2OC(O)(CC(O)C(O)CCC(O)CC(O)CC(O)CC(=O)OC(C)C(C)C1O)CC(O)C2C(=O)O", "note": "(stereo not given) [Nystatin]", "cell-surface Lgr5 expression": "inactive: 0.877"}, {"smiles": "CC[N+]1(C)CCCC(OC(=O)C(O)(c2ccccc2)c2ccccc2)C1", "note": "(stereo not given) [Pipenzolate bromide]", "cell-surface Lgr5 expression": "inactive: 1.07"}, {"smiles": "c1ccc2c(c1)OCC(C1=NCCN1)O2", "note": "(stereo not given) [Idazoxan hydrochloride]", "cell-surface Lgr5 expression": "inactive: 1.21"}, {"smiles": "CCCN1CCC[C@@H]2Cc3n[nH]cc3C[C@H]21", "note": "[Quinpirole dihydrochloride]", "cell-surface Lgr5 expression": "inactive: 1.08"}, {"smiles": "CC(C)c1cccc(C(C)C)c1O", "note": "[Propofol (2,6-diisopropylphenol)]", "cell-surface Lgr5 expression": "inactive: 0.99"}, {"smiles": "Oc1ccc2c3c1O[C@H]1[C@@H](O)CC[C@@]4(O)[C@@H](C2)N(CC2CCC2)CC[C@]314", "note": "[Nalbuphine]", "cell-surface Lgr5 expression": "inactive: 1.17"}, {"smiles": "COC1=CC(=O)O[C@@H](/C=C/c2ccccc2)C1", "note": "[Kavain]", "cell-surface Lgr5 expression": "inactive: 1.05"}, {"smiles": "O=C1C2CC=CCC2C(=O)N1SC(Cl)(Cl)Cl", "note": "(stereo not given) [Captan]", "cell-surface Lgr5 expression": "inactive: 1.07"}, {"smiles": "CCCCCCCCCC(=O)O[C@H]1CC[C@H]2[C@@H]3CCC4=CC(=O)CC[C@@H]4[C@H]3CC[C@]12C", "note": "[Nandrolone decanoate]", "cell-surface Lgr5 expression": "inactive: 0.905"}, {"smiles": "COc1cc(C2c3cc4c(cc3C(O)C(CO)C2C(=O)O)OCO4)cc(OC)c1OC.COc1cc(C2c3cc4c(cc3C(O)C(CO)C2C(=O)O)OCO4)cc(OC)c1OC.COc1cc(C2c3cc4c(cc3C(O)C3COC(=O)C23)OCO4)cc(OC)c1OC.COc1cc(C2c3cc4c(cc3C(O)C3COC(=O)C23)OCO4)cc(OC)c1OC", "note": "(stereo not given) [Podophyllum resin]", "cell-surface Lgr5 expression": "active: 1.55"}, {"smiles": "C=C1CC[C@@]2(O)[C@H]3Cc4ccc(O)c5c4[C@@]2(CCN3CC2CC2)[C@H]1O5", "note": "[Nalmefene]", "cell-surface Lgr5 expression": "inactive: 1.22"}, {"smiles": "CC(N)C(O)c1ccccc1", "note": "(stereo not given) [Norephedrine Hydrochloride (Phenylpropanolamine)]", "cell-surface Lgr5 expression": "inactive: 1.19"}, {"smiles": "COc1ccccc1OC", "note": "[Veratrole]", "cell-surface Lgr5 expression": "inactive: 0.751"}, {"smiles": "NCC1(CC(=O)O)CCCCC1", "note": "[Gabapentin]", "cell-surface Lgr5 expression": "inactive: 0.883"}, {"smiles": "CNC(=O)Oc1cccc2ccccc12", "note": "[Carbaryl (Carbaril)]", "cell-surface Lgr5 expression": "inactive: 0.718"}, {"smiles": "CC(O)(CS(=O)(=O)c1ccc(F)cc1)C(=O)Nc1ccc(C#N)c(C(F)(F)F)c1", "note": "(stereo not given) [Bicalutamide (Casodex)]", "cell-surface Lgr5 expression": "inactive: 1.11"}, {"smiles": "CCC1(c2ccc(N)cc2)CCC(=O)NC1=O", "note": "(racemic) [(+-)-p-Aminoglutethimide]", "cell-surface Lgr5 expression": "inactive: 1.35"}, {"smiles": "C[C@@H]1C[C@@H]([C@H](O)CC2CC(=O)NC(=O)C2)C(=O)[C@@H](C)C1", "note": "[Cycloheximide]", "cell-surface Lgr5 expression": "inactive: 0.313"}, {"smiles": "CN1[C@@H]2CC[C@H]1C[C@@H](OC(=O)c1cc(Cl)cc(Cl)c1)C2", "note": "[Bemesetron (MDL-7222)]", "cell-surface Lgr5 expression": "inactive: 1.18"}, {"smiles": "O=C(O)c1nn(Cc2ccc(Cl)cc2Cl)c2ccccc12", "note": "[Lonidamine]", "cell-surface Lgr5 expression": "inactive: 1.14"}, {"smiles": "Cc1cc(C(C#N)c2ccc(Cl)cc2)c(Cl)cc1NC(=O)c1cc(I)cc(I)c1O", "note": "(stereo not given) [Closantel]", "cell-surface Lgr5 expression": "inactive: 1.11"}, {"smiles": "CCCCOC(=O)c1ccccc1C(=O)OCCCC", "note": "[Dibutyl phthalate]", "cell-surface Lgr5 expression": "inactive: 0.671"}, {"smiles": "ClC(Cl)=C(Cl)Cl", "note": "[Tetrachloroethylene]", "cell-surface Lgr5 expression": "inactive: 1.18"}, {"smiles": "COc1ccc2c(c1O)-c1cccc3c1[C@@H](C2)N(C)CC3", "note": "[Apocodeine]", "cell-surface Lgr5 expression": "inactive: 1.01"}, {"smiles": "CC[C@H](C)[C@H]1O[C@]2(C=C[C@@H]1C)C[C@@H]1C[C@@H](C/C=C(\\C)[C@@H](O[C@H]3C[C@H](OC)[C@@H](O[C@H]4C[C@H](OC)[C@@H](O)[C@H](C)O4)[C@H](C)O3)[C@@H](C)/C=C/C=C3\\CO[C@@H]4[C@H](O)C(C)=C[C@@H](C(=O)O1)[C@]34O)O2.CO[C@H]1C[C@H](O[C@H]2[C@H](C)O[C@@H](O[C@@H]3/C(C)=C/C[C@@H]4C[C@@H](C[C@]5(C=C[C@H](C)[C@@H](C(C)C)O5)O4)OC(=O)[C@@H]4C=C(C)[C@@H](O)[C@H]5OC/C(=C\\C=C\\[C@@H]3C)[C@]54O)C[C@@H]2OC)O[C@@H](C)[C@@H]1O", "note": "[Abamectin]", "cell-surface Lgr5 expression": "inactive: 1.15"}, {"smiles": "BrC(Br)Br", "note": "[Bromoform]", "cell-surface Lgr5 expression": "inactive: 1.02"}, {"smiles": "O=C(O)CCCc1ccc(N(CCCl)CCCl)cc1", "note": "[Chlorambucil]", "cell-surface Lgr5 expression": "inactive: 1.14"}, {"smiles": "[S]=[Sb][S][Sb]=[S]", "note": "[Antimony (III) sulfide]", "cell-surface Lgr5 expression": "inactive: 1.26"}, {"smiles": "NC(=O)CN1CC(O)CC1=O", "note": "(stereo not given) [Oxiracetam]", "cell-surface Lgr5 expression": "active: 1.36"}, {"smiles": "[O-][Cl+3]([O-])([O-])O", "note": "[Sodium perchlorate monohydrate]", "cell-surface Lgr5 expression": "inactive: 1.03"}, {"smiles": "[O-][Cl+3]([O-])([O-])O", "note": "[Potassium perchlorate]", "cell-surface Lgr5 expression": "inactive: 1.07"}, {"smiles": "O=C1C[C@@H]2OCC=C3CN4CC[C@]56c7ccccc7N1[C@H]5[C@H]2[C@H]3C[C@H]46", "note": "[Strychnine]", "cell-surface Lgr5 expression": "inactive: 0.416"}, {"smiles": "CCC(=O)O[C@@](Cc1ccccc1)(c1ccccc1)[C@@H](C)CN(C)C", "note": "[Levopropoxyphene napsylate]", "cell-surface Lgr5 expression": "inactive: 0.856"}, {"smiles": "[O-][I+2]([O-])O", "note": "[Potassium iodate]", "cell-surface Lgr5 expression": "inactive: 1.14"}, {"smiles": "CN1C[C@H](C(=O)N[C@]2(C)O[C@@]3(O)[C@@H]4CCCN4C(=O)[C@H](Cc4ccccc4)N3C2=O)C[C@@H]2c3cccc4[nH]cc(c34)C[C@H]21", "note": "[Dihydroergotamine methanesulfonate]", "cell-surface Lgr5 expression": "inactive: 0.612"}, {"smiles": "O=C1NCN(c2ccccc2)C12CCN(CC1COc3ccccc3O1)CC2", "note": "(stereo not given) [Spiroxatrine]", "cell-surface Lgr5 expression": "inactive: 1.25"}, {"smiles": "C[N+]1(C)[C@@H]2CC[C@H]1C[C@@H](OC(=O)C(CO)c1ccccc1)C2", "note": "(stereo not given in full) [Methylatropine nitrate (Atropine methyl nitrate)]", "cell-surface Lgr5 expression": "inactive: 0.695"}]}]}
